Data published in the supplement of paper PMC5770031.
This is one part of the list. This data set is noisy: repeats of one test often differ as much as different tests do.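 ATM8/balancer (normal ATM) heterozygous flies were crossed on treated food; parents laid eggs 5–6 days, offspring developed ~12 days, so parents and larvae ingested compound. Readout: fraction of emerged adults homozygous for ATM8 versus 2% DMSO controls. Compounds were neutral at 10–20% homozygotes, harmful below 10%, helpful above 20%.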 Peptide text beside a SMILES is read from it.

These compounds were tested on Drosophila melanogaster ATM8 (temperature-sensitive ATM allele) (assay: fraction of eclosed F1 progeny that are homozygous ATM8 (rescue of developmental lethality); higher = more rescue of ATM8 developmental lethality; extreme values may be limits of the assay). Conditions: compound concentration applied to food 0.2 mM; 21 °C.

| SMILES | fraction of eclosed F1 progeny that are homozygous ATM8 |
| --- | --- |
| COc1ccc(-c2coc3cc(O)ccc3c2=O)c(OC)c1OC | 0.13 |
| Nc1c2c(nc3ccccc13)CCCC2 | 0.25 |
| CCCCC(CC)COC(=O)C(C#N)=C(c1ccccc1)c1ccccc1 (stereo not given) | 0.277 |
| O=c1cc(-c2ccccc2)oc2cc(O)cc(O)c12 | 0.109 |
| CC[C@H]1CN2CC[C@H]1C[C@@H]2[C@@H](O)c1ccnc2ccc(OC)cc12 | 0.0727 |
| CC[C@H]1OC(=O)C[C@@H](O)[C@H](C)[C@@H](O[C@@H]2O[C@H](C)[C@@H](O[C@H]3C[C@@](C)(O)[C@@H](O)[C@H](C)O3)[C@H](N(C)C)[C@H]2O)[C@@H](CC=O)C[C@@H](C)C(=O)/C=C/C(C)=C/[C@@H]1CO[C@@H]1O[C@H](C)[C@@H](O)[C@@H](OC)[C@H]1OC | 0.2 |
| COC(=O)CC1C(C)(C)C(OC(C)=O)[C@@H]2[C@@H](OC(C)=O)[C@]34O[C@@]2(O)[C@]1(C)C3CC[C@]1(C)C4=CC(=O)O[C@H]1c1ccoc1 (stereo not given in full) | 0.264 |
| CC(C)=CCCC1(C)C=Cc2c(O)c3c(c(CC=C(C)C)c2O1)OC12C(CC4CC1C(C)(C)OC2(C/C=C(/C)C(=O)O)C4O)C3=O (stereo not given) | 0.242 |
| CC1(C)O[C@@H]2C[C@H]3[C@@H]4CCC5=CC(=O)C=C[C@]5(C)[C@H]4[C@@H](O)C[C@]3(C)[C@]2(C(=O)CO)O1 | 0.0185 |
| O=C(O)Cc1cc(I)c(Oc2cc(I)c(O)c(I)c2)c(I)c1 | 0.0833 |
| CCN(CC)CCOc1ccc2c(c1)C(=O)c1cc(OCCN(CC)CC)ccc1-2 | 0.279 |
| CC(=O)N[C@@H](CS)C(=O)O | 0.0938 |
| CC(C)N(CCC(C(N)=O)(c1ccccc1)c1ccccn1)C(C)C (stereo not given) | 0.0213 |
| CC(=O)O[C@H]1C[C@@]2(C)[C@@H](C[C@@H](O)[C@H]3[C@@]4(C)CC[C@@H](O)[C@@H](C)[C@@H]4CC[C@@]32C)/C1=C(\CCC=C(C)C)C(=O)O | 0.192 |
| COc1cccc(-c2cc(=O)c3cc(OC)ccc3o2)c1 | 0.114 |
| O=c1cc(-c2ccccc2)oc2cc(O)c(O)c(O)c12 | 0.189 |
| CC(C)CCCC(C)N (stereo not given) | 0.151 |
| COc1cc(C2Oc3cc([C@H]4Oc5cc(O)cc(O)c5C(=O)[C@@H]4O)ccc3OC2CO)ccc1O (stereo not given in full) | 0.177 |
| CC[C@@]1(O)C[C@H](O[C@H]2C[C@H](N(C)C)[C@H](O)[C@H](C)O2)c2c(cc3c(c2O)C(=O)c2c(O)cccc2C3=O)[C@H]1C(=O)OC | 0.194 |
| CCN(CC)CCOC(=O)c1ccc(N)cc1 | 0.239 |
| C[C@H](N)[C@H](O)c1ccc(O)c(O)c1 | 0.0357 |
| CCOC(=O)c1c(C)cc(O)c(C=O)c1O | 0.125 |
| COc1ccc(-c2coc3c4c(c(CC=C(C)C)c(O)c3c2=O)OC(C)(C)C=C4)cc1 | 0.122 |
| Cc1c(C)c2c(c(C)c1O)CCC(C)(C(=O)O)O2 (stereo not given) | 0.0638 |
| CC[C@H](C)C(=O)O[C@H]1C[C@@H](C)C=C2C=C[C@H](C)[C@H](CC[C@@H]3C[C@@H](O)CC(=O)O3)[C@H]21 | 0.039 |
| Oc1cccc2[nH]ccc12 | 0.0825 |
| CC(C)C[C@H](N)C(=O)N[C@@H](C)C(=O)O (H-Leu-Ala-OH) | 0.093 |
| O=C1CCC[C@@H]2[C@H]3CCC[N+]4([O-])CCC[C@@H](CN12)[C@@H]34 (stereo not given in full) | 0.214 |

| SMILES | fraction of eclosed F1 progeny that are homozygous ATM8 |
| --- | --- |
| CC(C)n1c(/C=C/C(O)CC(O)CC(=O)O)c(-c2ccc(F)cc2)c2ccccc21 (stereo not given) | 0.143 |
| O=[N+]([O-])O[C@@H]1CO[C@H]2[C@@H]1OC[C@@H]2O | 0.0882 |
| CC(=O)Oc1cc2c(c(C)c1OC(C)=O)CC=C1[C@@]2(C)CC[C@@]2(C)C3C[C@](C)(C(=O)O)CC[C@]3(C)CC[C@]12C (stereo not given in full) | 0.212 |
| O=c1c(O)c(-c2ccc(O)cc2)oc2ccccc12 | 0.196 |
| CCCCNc1cc(C(=O)O)cc(S(N)(=O)=O)c1Oc1ccccc1 | 0.138 |
| C[C@H](Cn1cnc2c(N)ncnc21)OCP(=O)(O)O | 0.17 |
| CC(=O)Oc1ccccc1C(=O)Oc1ccccc1C(=O)O | 0.156 |
| NCCCC(O)(P(=O)(O)O)P(=O)(O)O | 0.125 |
| O=C(O)CN(CC(=O)O)Cc1cc2c(cc1O)Oc1cc(O)c(CN(CC(=O)O)CC(=O)O)cc1C21OC(=O)c2ccccc21 | 0.0909 |
| NC(=O)c1ccc(N)nc1 | 0.129 |
| N[C@@H](Cc1ccc(N(CCCl)CCCl)cc1)C(=O)O | 0.156 |
| CC1=CC(=O)c2c(O)cccc2C1=O | 0.098 |
| CCCCC/C=C/CCC(=O)N[C@H]1[C@H](Oc2c3cc4cc2Oc2ccc(cc2Cl)[C@@H](O[C@@H]2O[C@H](CO)[C@@H](O)[C@H](O)[C@H]2NC(C)=O)[C@@H]2NC(=O)[C@H](NC(=O)[C@@H]4NC(=O)[C@H]4NC(=O)C(Cc5ccc(c(Cl)c5)O3)NC(=O)[C@H](N)c3ccc(O)c(c3)Oc3cc(O)cc4c3)c3ccc(O)c(c3)-c3c(OC4O[C@H](CO)[C@@H](O)[C@H](O)[C@@H]4O)cc(O)cc3[C@@H](C(=O)O)NC2=O)O[C@H](CO)[C@@H](O)[C@@H]1O (stereo not given in full) [TEICOPLANIN [A(2-1) shown]] | 0.0435 |
| COc1ccc(C[C@H](N)C(=O)N[C@H]2[C@@H](O)[C@H](n3cnc4c(N(C)C)ncnc43)O[C@@H]2CO)cc1 | 0.167 |
| [O-][n+]1cccc(CO)c1 | 0.185 |
| Cc1ccnc(NS(=O)(=O)c2ccc(N)cc2)n1 | 0.154 |
| NCCNCCNCCN | 0 |
| O=C1CN=C(c2ccccc2Cl)c2cc([N+](=O)[O-])ccc2N1 | 0.191 |
| O=C(CCc1ccc(O)cc1)c1c(O)cc(O)cc1O[C@@H]1OC(CO)[C@@H](O)[C@@H](O)C1O (stereo not given in full) | 0.25 |
| CCCCCNC(=N)N/N=C/c1c[nH]c2ccc(OC)cc12 | 0.178 |
| O=C(O)c1ccc(S(=O)(=O)N(Cl)Cl)cc1 | 0.0952 |
| O=C(Oc1ccccc1C(=O)O)c1ccccc1O | 0.375 |
| COc1c(C)c2c(c(O)c1C/C=C(\C)CCC(=O)O)C(=O)OC2 | 0.219 |
| CC(C)c1ccc2c(c1)CC[C@H]1[C@](C)(CN)CCC[C@]21C | 0.231 |
| C[C@H]1O[C@H](O[C@H]2[C@H](O)[C@@H](O)[C@@H](O)[C@H](O)[C@@H]2O)[C@@H](N)C[C@@H]1NC(=N)C(=O)O | 0.0682 |
| Nc1ccc(C(=O)O)cc1 | 0.129 |
| CCN1CCCC(OC(=O)C(c2ccccc2)c2ccccc2)C1 (stereo not given) | 0.08 |

Five neighbouring compounds already listed, quoted:

| SMILES | fraction of eclosed F1 progeny that are homozygous ATM8 |
| --- | --- |
| CC(C)n1c(/C=C/C(O)CC(O)CC(=O)O)c(-c2ccc(F)cc2)c2ccccc21 (stereo not given) | 0.143 |
| O=[N+]([O-])O[C@@H]1CO[C@H]2[C@@H]1OC[C@@H]2O | 0.0882 |
| CC(=O)Oc1cc2c(c(C)c1OC(C)=O)CC=C1[C@@]2(C)CC[C@@]2(C)C3C[C@](C)(C(=O)O)CC[C@]3(C)CC[C@]12C (stereo not given in full) | 0.212 |
| O=c1c(O)c(-c2ccc(O)cc2)oc2ccccc12 | 0.196 |
| CCCCNc1cc(C(=O)O)cc(S(N)(=O)=O)c1Oc1ccccc1 | 0.138 |
